Experimental data reported in patent US20120034651A1.
No constants are given. Whether binding was seen depends on the method and setting. Some results given as binding are weak or reduced against the parent protein; the word gives no strength.

The chains behind the UniProt entries cited, without tags or fusion partners.
UniProt P31751: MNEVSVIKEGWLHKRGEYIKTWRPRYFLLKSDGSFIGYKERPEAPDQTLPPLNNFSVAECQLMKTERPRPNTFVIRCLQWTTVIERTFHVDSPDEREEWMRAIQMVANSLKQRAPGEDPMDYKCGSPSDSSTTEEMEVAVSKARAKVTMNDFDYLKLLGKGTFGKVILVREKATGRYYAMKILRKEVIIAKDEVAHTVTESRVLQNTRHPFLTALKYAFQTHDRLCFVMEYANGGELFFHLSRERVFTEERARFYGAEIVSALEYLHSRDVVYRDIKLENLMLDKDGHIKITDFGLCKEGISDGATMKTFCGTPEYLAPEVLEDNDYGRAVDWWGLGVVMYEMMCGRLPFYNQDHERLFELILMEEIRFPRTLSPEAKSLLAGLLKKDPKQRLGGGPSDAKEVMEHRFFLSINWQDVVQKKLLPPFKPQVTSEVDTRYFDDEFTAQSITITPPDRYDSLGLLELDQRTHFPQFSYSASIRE
UniProt P56279: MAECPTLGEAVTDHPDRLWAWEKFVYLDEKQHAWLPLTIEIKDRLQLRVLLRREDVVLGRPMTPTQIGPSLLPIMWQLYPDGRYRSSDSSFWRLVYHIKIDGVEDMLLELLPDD

Target: human Akt2 (Akt2/PAS2-1) (human) (UniProt P31751)
Experiment: yeast two-hybrid, beta-Gal lifting assay (beta-Gal positive at 3h)

In the case of “wild-type TCL1 (human, full length) (from UniProt P56279 1-114)”, the binding is reported as “binds”.
